The text below walks through data of article PMC11178496.

By UniProt entry, the sequences of proteins in these tests, tags left out. Residues count along the entry.
UniProt Q14790: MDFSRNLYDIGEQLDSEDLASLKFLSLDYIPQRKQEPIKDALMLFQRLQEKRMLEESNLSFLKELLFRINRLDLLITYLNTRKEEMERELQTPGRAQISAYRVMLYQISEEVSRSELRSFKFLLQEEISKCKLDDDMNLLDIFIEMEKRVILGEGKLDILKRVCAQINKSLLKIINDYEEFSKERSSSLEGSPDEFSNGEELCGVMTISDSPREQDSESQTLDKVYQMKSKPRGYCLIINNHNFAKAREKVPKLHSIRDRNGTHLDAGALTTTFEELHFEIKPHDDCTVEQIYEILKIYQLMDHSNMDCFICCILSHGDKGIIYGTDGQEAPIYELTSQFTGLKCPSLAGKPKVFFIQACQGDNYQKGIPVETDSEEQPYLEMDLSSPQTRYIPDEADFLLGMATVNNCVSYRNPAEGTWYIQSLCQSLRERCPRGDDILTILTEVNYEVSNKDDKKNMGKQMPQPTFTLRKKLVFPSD
UniProt P25445, residues 26-335: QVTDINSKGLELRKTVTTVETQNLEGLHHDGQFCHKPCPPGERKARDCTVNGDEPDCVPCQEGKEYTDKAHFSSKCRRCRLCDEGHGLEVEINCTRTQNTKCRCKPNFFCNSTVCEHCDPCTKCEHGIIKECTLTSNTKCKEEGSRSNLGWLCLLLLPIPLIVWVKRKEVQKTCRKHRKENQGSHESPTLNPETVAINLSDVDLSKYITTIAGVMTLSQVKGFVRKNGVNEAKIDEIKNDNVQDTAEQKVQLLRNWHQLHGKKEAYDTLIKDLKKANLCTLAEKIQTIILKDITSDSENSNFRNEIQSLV
UniProt Q9BQA1: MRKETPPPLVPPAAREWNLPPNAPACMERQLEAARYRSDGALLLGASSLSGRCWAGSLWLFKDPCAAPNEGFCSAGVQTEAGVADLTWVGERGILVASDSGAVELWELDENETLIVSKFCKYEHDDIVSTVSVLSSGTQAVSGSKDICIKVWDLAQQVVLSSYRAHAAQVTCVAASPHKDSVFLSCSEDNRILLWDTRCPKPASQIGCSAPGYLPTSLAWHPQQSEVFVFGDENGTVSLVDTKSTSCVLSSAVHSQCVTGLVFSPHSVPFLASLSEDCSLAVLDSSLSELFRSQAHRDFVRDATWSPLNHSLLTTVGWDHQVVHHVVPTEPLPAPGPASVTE
UniProt O14744: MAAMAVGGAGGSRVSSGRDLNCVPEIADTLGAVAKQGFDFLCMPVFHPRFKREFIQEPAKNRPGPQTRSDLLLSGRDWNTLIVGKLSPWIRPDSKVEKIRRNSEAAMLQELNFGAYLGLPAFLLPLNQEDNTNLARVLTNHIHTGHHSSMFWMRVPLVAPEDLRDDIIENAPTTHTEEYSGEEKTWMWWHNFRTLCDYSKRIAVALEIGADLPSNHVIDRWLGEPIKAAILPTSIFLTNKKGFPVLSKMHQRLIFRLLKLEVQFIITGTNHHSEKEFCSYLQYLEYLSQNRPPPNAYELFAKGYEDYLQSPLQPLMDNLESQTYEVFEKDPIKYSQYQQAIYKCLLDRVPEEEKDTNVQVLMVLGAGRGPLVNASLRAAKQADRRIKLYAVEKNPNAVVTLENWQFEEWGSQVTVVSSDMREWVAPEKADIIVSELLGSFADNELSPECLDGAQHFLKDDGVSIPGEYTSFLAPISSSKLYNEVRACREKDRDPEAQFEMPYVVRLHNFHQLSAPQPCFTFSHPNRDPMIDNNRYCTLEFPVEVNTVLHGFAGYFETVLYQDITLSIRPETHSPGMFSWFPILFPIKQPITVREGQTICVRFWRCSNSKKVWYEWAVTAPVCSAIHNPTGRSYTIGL

Experiment [1] concerns the target Procaspase-8 (human (endogenous in SKW 6.4)) (UniProt Q14790). Briefly: affinity purification with mass spectrometry; anti-caspase-8 or anti-CD95 (anti-APO-1) antibodies covalently coupled to sepharose beads (Pierce Co-Immunoprecipitation kit); total lysates of SKW 6.4 cells treated for 15 min with 166 ng/mL CD95L or left untreated; nanoLC-tandem mass spectrometry.

For experiment [2], the target named is CD95/Fas (human (endogenous in SKW 6.4)) (UniProt P25445). The experiment is described as above.

Results are given in words; binding and its absence hold for the method and conditions named. Binding seen in cells or lysates may run through a third protein. Here binding means that the protein was enriched with, or labelled near, the bait; the list need not be complete.

With “MEP50/WD45/WDR77 (WD repeat-containing protein) (from UniProt Q9BQA1 1-342)”, the binding entry in experiment [1] and in experiment [2] was “binds” each time.
For the substance “PRMT5 (from UniProt O14744 1-637) (enzyme)”, the binding entry in experiment [1] and in experiment [2] was “binds” each time.
